Measurements reported in PubChem BioAssay AID1159546 (Gurdon Institute, 2015).
Of all reagents, 23 (55%) were called active. 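a 40% shift in either direction was cited, but only reduced pCHK1/CHK1 counts as active; high values remain inactive.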 The numbers tell different reagents against one gene apart. The record does not give: the time to read-out.

Assay: 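Which E2 knock-downs shift checkpoint signalling in camptothecin-treated cells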
Cell system: human U2OS osteosarcoma cells
Reagents: siRNA against human genes, about 60 nM siRNA
Conditions: camptothecin 1 uM for 1 hour before harvest
Read-out: 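Western blot signals for pCHK1/CHK1, pKAP1/KAP1 and gammaH2AX, minus the undamaged baseline, expressed as percent of luciferase control siRNA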
Reading the numbers: pCHK1/CHK1 vs control: higher = more CHK1 phosphorylation after camptothecin; pKAP1/KAP1 vs control: higher = more KAP1 phosphorylation after camptothecin; gammaH2AX vs control: higher = more H2AX phosphorylation after camptothecin
Call rule: In these data the active calls have pCHK1/CHK1 vs control at about 59.8 or lower

Target gene	reagent no.	pCHK1/CHK1 vs control (%)	pKAP1/KAP1 vs control (%)	gammaH2AX vs control (%)	activity call
UBE2W	1	45.7	28.3	71.4	active
UBE2Z	1	85.9	85.3	88.1	inactive
UBE2T	1	46.9	53	85.2	active
UBE2G1	1	31.9	36.2	78.1	active
BRCA1	1	46.9	59.5	97.5	active
UBE2R2	1	70.3	6.44	146	inactive
UBE2E2	1	127	52.9	86.7	inactive
UBE2A	1	90	109	87.6	inactive
UBE2D2	1	12.4	20.3	33.5	active
AKTIP	1	91.4	80.7	89.5	inactive
CDC34	1	27.8	16.9	64	active
RBBP8	1	34.2	172	97.2	active
UBE2Q1	1	58.5	120	70.9	active
UBE2J2	1	77.1	62.9	57.9	inactive
UBE2M	1	147	88.2	104	
UBE2F	1	102	117	51.9	inactive
UBE2N	1	0	1.43	18	active
UBE2N	2	90.2	172	49.8	inactive
UBE2NL	1	93.6	119	85.5	inactive
UEVLD	1	130	47.9	79.8	inactive
UBE2U	1	51.4	30.9	67.7	active
UBE2V2	1	11.6	155	91.4	active
UBE2H	1	52.6	150	97.7	active
UBE2D1	1	40.8	84.8	75.3	active
UBE2K	1	94	115	99.4	inactive
UBE2O	1	22.3	26.3	36.5	active
UBE2E1	1	113	123	89.8	inactive
UBE2V1	1	54.8	82.4	54.7	active
TSG101	1	101	90.3	94.5	inactive
UBE2D3	1	1.79	0	24.4	active
UBE2E3	1	92.9	99.4	86.2	inactive
UBE2S	1	58.4	13.7	84.8	active
UBE2J1	1	43.8	70.6	58.4	active
UBE2D4	1	54.2	120	89.1	active
UBE2L3	1	35.5	71.6	77.3	active
UBE2Q2	1	36.2	0	38.6	active
UBE2C	1	59.8	57.2	94.8	active
UBE2B	1	81.1	71.5	92.4	inactive
UBE2G2	1	70.1	53	96.1	inactive
UBE2L6	1	35	59.4	55.9	active
BIRC6	1	68.5	19.7	91.6	inactive

Records listed so far whose target name begins with B or b (2):
Target gene	reagent no.	pCHK1/CHK1 vs control (%)	pKAP1/KAP1 vs control (%)	gammaH2AX vs control (%)	activity call
BRCA1	1	46.9	59.5	97.5	active
BIRC6	1	68.5	19.7	91.6	inactive
